Drug screen on melanoma cell lines: cell count

Data from the primary screen of doi:10.1371/journal.pone.0140310, rounded.

Drug key:
CP-690550: C[C@@H]1CCN(C(=O)CC#N)C[C@@H]1N(C)c1ncnc2[nH]ccc12 at 1000 nM
U73122: COc1ccc2c(c1)CCC1C2CCC2(C)C(NCCCCCCN3C(=O)C=CC3=O)CCC12 (configuration not stated) at 400 nM
GW2580: COc1ccc(COc2ccc(Cc3cnc(N)nc3N)cc2OC)cc1 at 1000 nM
KU-0063794: COc1ccc(-c2ccc3c(N4CCOCC4)nc(N4C[C@@H](C)O[C@@H](C)C4)nc3n2)cc1CO at 20 nM
JZL184: O=C(Oc1ccc([N+](=O)[O-])cc1)N1CCC(C(O)(c2ccc3c(c2)OCO3)c2ccc3c(c2)OCO3)CC1 at 1000 nM
lenalidomide: Nc1cccc2c1CN(C1CCC(=O)NC1=O)C2=O (configuration not stated) at 1000 nM
veliparib: C[C@]1(c2nc3c(C(N)=O)cccc3[nH]2)CCCN1 at 1400 nM
midostaurin: CO[C@@H]1[C@H](N(C)C(=O)c2ccccc2)C[C@H]2O[C@]1(C)n1c3ccccc3c3c4c(c5c6ccccc6n2c5c31)C(=O)NC4 at 80 nM
tipifarnib: Cn1cncc1[C@@](N)(c1ccc(Cl)cc1)c1ccc2c(c1)c(-c1cccc(Cl)c1)cc(=O)n2C at 10 nM
pioglitazone: CCc1ccc(CCOc2ccc(CC3SC(=O)NC3=O)cc2)nc1 (configuration not stated) at 2000 nM
dasatinib: Cc1nc(Nc2ncc(C(=O)Nc3c(C)cccc3Cl)s2)cc(N2CCN(CCO)CC2)n1 at 4 nM

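The test systems are human melanoma cell lines, treated with two drugs together for 72 h and then stained and imaged. The read-out is cell count (nuclei) in % of the DMSO control; lower values mean stronger growth inhibition or killing. Every drug was used at one fixed concentration, the lower of two screened (a fifth of the higher). These are primary screening values without error estimates.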 Only some of the drugs and lines screened are listed, without regard to their results.

Combination	COLO 800	A101D	IPC-298	COLO 792	A375	LOX IMVI
lenalidomide + KU-0063794	109	101	105	103	83.3	94.8
dasatinib + veliparib	76.5	83.6	96.7	67.0	74.8	39.6
veliparib + GW2580	181	101	97.6	95.1	97.5	128
midostaurin + pioglitazone	123	77.2	94.7	97.1	83.3	73.1
veliparib + KU-0063794	63.1	80.8	98.5	87.6	79.0	73.6
U73122 + pioglitazone	131	88.5	93.5	93.4	97.2	74.2
pioglitazone + CP-690550	127	110	99.1	93.6	101	227
pioglitazone + KU-0063794	99.5	105	96.4	101	102	100
lenalidomide + JZL184	89.4	95.7	94.0	86.6	87.3	138
JZL184 + tipifarnib	94.9	96.3	104	102	65.9	96.3
JZL184 + U73122	127	84.9	103	88.0	82.4	75.7
lenalidomide + tipifarnib	51.5	84.6	99.3	88.9	81.1	103
pioglitazone + GW2580	72.9	101	102	103	85.0	102
dasatinib + tipifarnib	96.9	72.6	83.6	56.6	71.6	65.6
JZL184 + dasatinib	109	86.3	97.7	64.0	99.8	68.4
tipifarnib + KU-0063794	53.8	88.4	95.6	93.1	86.0	103
dasatinib + GW2580	78.3	85.5	103	59.2	88.9	68.6
tipifarnib + pioglitazone	108	89.0	95.1	91.3	78.1	107
CP-690550 + JZL184	103	103	104	101	98.0	97.2
JZL184 + midostaurin	81.0	115	96.4	98.6	90.8	119
KU-0063794 + CP-690550	63.4	101	100	81.4	101	98.6
dasatinib + U73122	104	85.3	96.1	65.1	86.0	64.4
lenalidomide + dasatinib	96.9	84.6	97.4	57.6	92.6	45.6
tipifarnib + GW2580	88.4	88.8	99.7	83.6	46.7	57.0
JZL184 + veliparib	71.5	86.9	98.6	88.5	88.4	123
U73122 + lenalidomide	147	113	101	105	88.1	260

The first 2 entries again:

{"combination": "lenalidomide + KU-0063794", "COLO 800": 109, "A101D": 101, "IPC-298": 105, "COLO 792": 103, "A375": 83.3, "LOX IMVI": 94.8}
{"combination": "dasatinib + veliparib", "COLO 800": 76.5, "A101D": 83.6, "IPC-298": 96.7, "COLO 792": 67.0, "A375": 74.8, "LOX IMVI": 39.6}